PubChem BioAssay AID504804 | Drosophila RNAi Screening Center | 2011
Assay: 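Knock-downs shielding fly cells from apoptosis caused by DNA damage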 (primary screen). Cells: Drosophila Kc cells. Knock-down reagent: long dsRNA against Drosophila genes, 0.5 µg dsRNA per well. Time to read-out: 96 h (48 h knock-down, then 48 h drug). Challenge: doxorubicin 5 µg/ml for 48 h, added 48 h after dsRNA. Measured: 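Luminescent ATP counts per replicate, not normalised, reflecting viable cells after 48 h dsRNA knock-down followed by 48 h of 5 µg/ml doxorubicin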. Reading the numbers: raw ATP luminescence: higher = more viable cells, protection from doxorubicin. Rule for the call: 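z-score of 2 or more over plate mean in both duplicates, retained only when retests and separate dsRNAs confirm the protection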.
The deposit covers about 19,000 reagents; this is an unselected part of those that have a named target and a result. In the full data, 47 (0.25%) are marked active. 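Signals are raw, not normalised; exact z-scores behind calls not deposited; actives needed confirmation, so some wells reaching 2 SD are inactive.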 Names joined by + are all predicted targets of the reagent. No sequences are given here.

{"predicted target": "wake (GeneID 42676)", "dsRNA": "DRSC16148", "raw ATP luminescence, replicate 1": 47830, "raw ATP luminescence, replicate 2": 54560, "Outcome": "inactive"}
{"predicted target": "wake (GeneID 42676)", "dsRNA": "DRSC16149", "raw ATP luminescence, replicate 1": 63440, "raw ATP luminescence, replicate 2": 76820, "Outcome": "inactive"}
{"predicted target": "Rab9Db + Rab9Fa", "dsRNA": "DRSC18445", "raw ATP luminescence, replicate 1": 3.77e5, "raw ATP luminescence, replicate 2": 3.41e5, "Outcome": "inactive"}
{"predicted target": "HisCl1 (GeneID 41426)", "dsRNA": "DRSC14945", "raw ATP luminescence, replicate 1": 65183, "raw ATP luminescence, replicate 2": 27480, "Outcome": "inactive"}
{"predicted target": "rb (GeneID 31381)", "dsRNA": "DRSC18826", "raw ATP luminescence, replicate 1": 49800, "raw ATP luminescence, replicate 2": 51940, "Outcome": "inactive"}
{"predicted target": "mgl (GeneID 8674055)", "dsRNA": "DRSC17800", "raw ATP luminescence, replicate 1": 3.52e5, "raw ATP luminescence, replicate 2": 3.19e5, "Outcome": "inactive"}
{"predicted target": "mgl (GeneID 8674055)", "dsRNA": "DRSC17859", "raw ATP luminescence, replicate 1": 3.61e5, "raw ATP luminescence, replicate 2": 3.60e5, "Outcome": "inactive"}
{"predicted target": "mgl (GeneID 8674055)", "dsRNA": "DRSC18004", "raw ATP luminescence, replicate 1": 3.23e5, "raw ATP luminescence, replicate 2": 3.28e5, "Outcome": "inactive"}
{"predicted target": "CG33272 (GeneID 2768958)", "dsRNA": "DRSC09116", "raw ATP luminescence, replicate 1": 84473, "raw ATP luminescence, replicate 2": 73003, "Outcome": "inactive"}
{"predicted target": "CG15531 (GeneID 43592)", "dsRNA": "DRSC15068", "raw ATP luminescence, replicate 1": 32420, "raw ATP luminescence, replicate 2": 48650, "Outcome": "inactive"}
{"predicted target": "betaTub65B (GeneID 117406)", "dsRNA": "DRSC11393", "raw ATP luminescence, replicate 1": 74383, "raw ATP luminescence, replicate 2": 79560, "Outcome": "inactive"}
{"predicted target": "Sfp53D (GeneID 8673983)", "dsRNA": "DRSC05625", "raw ATP luminescence, replicate 1": 1.65e5, "raw ATP luminescence, replicate 2": 1.51e5, "Outcome": "inactive"}

Next part, starting with the last 5 of the part before.
{"predicted target": "mgl (GeneID 8674055)", "dsRNA": "DRSC18004", "raw ATP luminescence, replicate 1": 3.23e5, "raw ATP luminescence, replicate 2": 3.28e5, "Outcome": "inactive"}
{"predicted target": "CG33272 (GeneID 2768958)", "dsRNA": "DRSC09116", "raw ATP luminescence, replicate 1": 84473, "raw ATP luminescence, replicate 2": 73003, "Outcome": "inactive"}
{"predicted target": "CG15531 (GeneID 43592)", "dsRNA": "DRSC15068", "raw ATP luminescence, replicate 1": 32420, "raw ATP luminescence, replicate 2": 48650, "Outcome": "inactive"}
{"predicted target": "betaTub65B (GeneID 117406)", "dsRNA": "DRSC11393", "raw ATP luminescence, replicate 1": 74383, "raw ATP luminescence, replicate 2": 79560, "Outcome": "inactive"}
{"predicted target": "Sfp53D (GeneID 8673983)", "dsRNA": "DRSC05625", "raw ATP luminescence, replicate 1": 1.65e5, "raw ATP luminescence, replicate 2": 1.51e5, "Outcome": "inactive"}
{"predicted target": "ccb (GeneID 33096)", "dsRNA": "DRSC20501", "raw ATP luminescence, replicate 1": 3.50e5, "raw ATP luminescence, replicate 2": 2.71e5, "Outcome": "inactive"}
{"predicted target": "Prosap (GeneID 50225)", "dsRNA": "DRSC07081", "raw ATP luminescence, replicate 1": 89103, "raw ATP luminescence, replicate 2": 49003, "Outcome": "inactive"}
{"predicted target": "CG15517 (GeneID 43537)", "dsRNA": "DRSC15056", "raw ATP luminescence, replicate 1": 67140, "raw ATP luminescence, replicate 2": 51920, "Outcome": "inactive"}
{"predicted target": "ND-49L (GeneID 43073)", "dsRNA": "DRSC14437", "raw ATP luminescence, replicate 1": 54410, "raw ATP luminescence, replicate 2": 58120, "Outcome": "inactive"}
{"predicted target": "CG42471 (GeneID 8674020)", "dsRNA": "DRSC01210", "raw ATP luminescence, replicate 1": 3.51e5, "raw ATP luminescence, replicate 2": 2.66e5, "Outcome": "inactive"}
{"predicted target": "CG16896 (GeneID 37977)", "dsRNA": "DRSC04284", "raw ATP luminescence, replicate 1": 88710, "raw ATP luminescence, replicate 2": 57933, "Outcome": "inactive"}
{"predicted target": "Doc1 (GeneID 39039)", "dsRNA": "DRSC11146", "raw ATP luminescence, replicate 1": 51943, "raw ATP luminescence, replicate 2": 60553, "Outcome": "inactive"}
{"predicted target": "CG11630 (GeneID 35429)", "dsRNA": "DRSC03696", "raw ATP luminescence, replicate 1": 57913, "raw ATP luminescence, replicate 2": 55987, "Outcome": "inactive"}
{"predicted target": "CG12912 (GeneID 36075)", "dsRNA": "DRSC06227", "raw ATP luminescence, replicate 1": 10743, "raw ATP luminescence, replicate 2": 12323, "Outcome": "inactive"}
{"predicted target": "Ugt35A1 (GeneID 41334)", "dsRNA": "DRSC16892", "raw ATP luminescence, replicate 1": 44567, "raw ATP luminescence, replicate 2": 24663, "Outcome": "inactive"}
{"predicted target": "ZnT63C (GeneID 38407)", "dsRNA": "DRSC08032", "raw ATP luminescence, replicate 1": 1.41e5, "raw ATP luminescence, replicate 2": 91177, "Outcome": "inactive"}
{"predicted target": "ZnT63C (GeneID 38407)", "dsRNA": "DRSC08033", "raw ATP luminescence, replicate 1": 1.51e5, "raw ATP luminescence, replicate 2": 1.29e5, "Outcome": "inactive"}
{"predicted target": "ZnT63C (GeneID 38407)", "dsRNA": "DRSC08519", "raw ATP luminescence, replicate 1": 42620, "raw ATP luminescence, replicate 2": 38600, "Outcome": "inactive"}
{"predicted target": "CG18223 (GeneID 40068)", "dsRNA": "DRSC10306", "raw ATP luminescence, replicate 1": 55010, "raw ATP luminescence, replicate 2": 59080, "Outcome": "inactive"}
{"predicted target": "CCT7 (GeneID 41054)", "dsRNA": "DRSC16410", "raw ATP luminescence, replicate 1": 55117, "raw ATP luminescence, replicate 2": 52583, "Outcome": "inactive"}
{"predicted target": "CG18135 (GeneID 40073)", "dsRNA": "DRSC10295", "raw ATP luminescence, replicate 1": 25663, "raw ATP luminescence, replicate 2": 34590, "Outcome": "inactive"}
{"predicted target": "Pgant3 (GeneID 35627)", "dsRNA": "DRSC05942", "raw ATP luminescence, replicate 1": 69903, "raw ATP luminescence, replicate 2": 65883, "Outcome": "inactive"}
{"predicted target": "CG32582 (retired record) (GeneID 318099)", "dsRNA": "DRSC19114", "raw ATP luminescence, replicate 1": 2.38e5, "raw ATP luminescence, replicate 2": 2.62e5, "Outcome": "inactive"}
{"predicted target": "CG33506 (GeneID 3346177)", "dsRNA": "DRSC05981", "raw ATP luminescence, replicate 1": 70060, "raw ATP luminescence, replicate 2": 71407, "Outcome": "inactive"}
{"predicted target": "CG3061 (GeneID 41707)", "dsRNA": "DRSC15460", "raw ATP luminescence, replicate 1": 92760, "raw ATP luminescence, replicate 2": 95610, "Outcome": "inactive"}
{"predicted target": "lectin-24A (GeneID 53543)", "dsRNA": "DRSC00604", "raw ATP luminescence, replicate 1": 22060, "raw ATP luminescence, replicate 2": 27393, "Outcome": "inactive"}
{"predicted target": "corto (GeneID 40616)", "dsRNA": "DRSC12375", "raw ATP luminescence, replicate 1": 51420, "raw ATP luminescence, replicate 2": 41760, "Outcome": "inactive"}
{"predicted target": "CG3732 (GeneID 37588)", "dsRNA": "DRSC04410", "raw ATP luminescence, replicate 1": 57873, "raw ATP luminescence, replicate 2": 82353, "Outcome": "inactive"}
{"predicted target": "MsrA (GeneID 39675)", "dsRNA": "DRSC11159", "raw ATP luminescence, replicate 1": 62983, "raw ATP luminescence, replicate 2": 51170, "Outcome": "inactive"}
